Data from PMC6853375.
Results are given in words; binding and its absence hold for the method and conditions named. Binding seen in cells or lysates may run through a third protein. Some binding calls cover weakened binding; strength is not graded here.

The chains behind the UniProt entries cited, without tags or fusion partners.
UniProt P06748: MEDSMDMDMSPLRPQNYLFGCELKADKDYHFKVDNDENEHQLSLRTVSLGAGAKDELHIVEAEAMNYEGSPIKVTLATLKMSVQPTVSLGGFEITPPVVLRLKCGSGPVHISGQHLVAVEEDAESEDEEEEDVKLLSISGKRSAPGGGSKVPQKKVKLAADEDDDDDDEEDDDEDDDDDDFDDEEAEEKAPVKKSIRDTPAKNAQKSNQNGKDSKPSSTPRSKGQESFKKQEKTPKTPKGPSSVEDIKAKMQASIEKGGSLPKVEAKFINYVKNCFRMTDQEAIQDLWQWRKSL
UniProt Q12873: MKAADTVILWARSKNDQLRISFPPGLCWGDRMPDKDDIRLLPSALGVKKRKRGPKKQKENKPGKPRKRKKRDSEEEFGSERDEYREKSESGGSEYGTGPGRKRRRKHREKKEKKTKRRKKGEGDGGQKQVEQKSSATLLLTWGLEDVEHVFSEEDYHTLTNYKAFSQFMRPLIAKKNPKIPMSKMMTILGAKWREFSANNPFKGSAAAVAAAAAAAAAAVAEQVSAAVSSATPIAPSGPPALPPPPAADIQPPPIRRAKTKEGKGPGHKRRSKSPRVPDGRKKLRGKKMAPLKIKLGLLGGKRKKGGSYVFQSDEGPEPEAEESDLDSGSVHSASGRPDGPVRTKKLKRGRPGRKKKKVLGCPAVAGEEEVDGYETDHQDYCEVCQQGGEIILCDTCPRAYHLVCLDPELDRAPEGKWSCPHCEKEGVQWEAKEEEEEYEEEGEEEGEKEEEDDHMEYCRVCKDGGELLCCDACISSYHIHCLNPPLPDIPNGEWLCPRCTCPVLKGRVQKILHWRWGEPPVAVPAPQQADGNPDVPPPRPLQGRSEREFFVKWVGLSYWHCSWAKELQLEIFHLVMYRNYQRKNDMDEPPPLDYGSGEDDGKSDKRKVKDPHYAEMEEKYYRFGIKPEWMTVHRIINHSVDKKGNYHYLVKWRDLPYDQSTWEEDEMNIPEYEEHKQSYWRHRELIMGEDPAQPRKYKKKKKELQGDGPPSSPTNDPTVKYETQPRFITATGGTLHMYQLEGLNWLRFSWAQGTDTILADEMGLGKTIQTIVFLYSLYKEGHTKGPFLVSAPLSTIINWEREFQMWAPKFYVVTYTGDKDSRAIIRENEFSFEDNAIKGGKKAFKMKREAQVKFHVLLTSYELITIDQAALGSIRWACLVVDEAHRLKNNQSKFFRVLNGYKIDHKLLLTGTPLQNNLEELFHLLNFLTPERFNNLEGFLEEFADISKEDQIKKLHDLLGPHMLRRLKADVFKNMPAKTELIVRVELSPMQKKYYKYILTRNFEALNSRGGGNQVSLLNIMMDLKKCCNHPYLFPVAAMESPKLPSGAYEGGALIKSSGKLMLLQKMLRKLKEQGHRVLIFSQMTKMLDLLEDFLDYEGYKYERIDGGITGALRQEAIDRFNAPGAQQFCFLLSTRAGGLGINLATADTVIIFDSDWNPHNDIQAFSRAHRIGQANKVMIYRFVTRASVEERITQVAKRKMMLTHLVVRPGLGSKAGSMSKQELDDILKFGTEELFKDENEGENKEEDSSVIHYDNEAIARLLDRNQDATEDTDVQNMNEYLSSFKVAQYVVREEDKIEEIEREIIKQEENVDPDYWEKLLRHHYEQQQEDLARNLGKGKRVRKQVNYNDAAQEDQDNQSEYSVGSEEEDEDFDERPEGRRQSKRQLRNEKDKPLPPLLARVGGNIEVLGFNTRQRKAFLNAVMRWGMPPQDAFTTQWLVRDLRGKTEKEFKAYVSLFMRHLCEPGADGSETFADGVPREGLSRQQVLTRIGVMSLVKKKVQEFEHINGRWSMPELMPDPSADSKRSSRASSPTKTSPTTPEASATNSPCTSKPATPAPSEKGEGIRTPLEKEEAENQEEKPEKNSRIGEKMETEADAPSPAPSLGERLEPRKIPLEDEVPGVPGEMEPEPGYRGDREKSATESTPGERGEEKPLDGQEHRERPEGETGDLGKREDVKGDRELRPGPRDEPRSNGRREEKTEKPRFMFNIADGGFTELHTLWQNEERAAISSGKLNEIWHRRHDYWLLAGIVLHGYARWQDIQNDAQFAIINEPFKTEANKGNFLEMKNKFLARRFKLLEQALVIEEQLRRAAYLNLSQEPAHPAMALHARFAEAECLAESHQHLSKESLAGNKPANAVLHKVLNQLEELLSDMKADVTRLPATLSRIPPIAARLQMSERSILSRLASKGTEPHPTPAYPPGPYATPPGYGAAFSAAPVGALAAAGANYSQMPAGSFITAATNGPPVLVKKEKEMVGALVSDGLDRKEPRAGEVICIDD
UniProt P28370: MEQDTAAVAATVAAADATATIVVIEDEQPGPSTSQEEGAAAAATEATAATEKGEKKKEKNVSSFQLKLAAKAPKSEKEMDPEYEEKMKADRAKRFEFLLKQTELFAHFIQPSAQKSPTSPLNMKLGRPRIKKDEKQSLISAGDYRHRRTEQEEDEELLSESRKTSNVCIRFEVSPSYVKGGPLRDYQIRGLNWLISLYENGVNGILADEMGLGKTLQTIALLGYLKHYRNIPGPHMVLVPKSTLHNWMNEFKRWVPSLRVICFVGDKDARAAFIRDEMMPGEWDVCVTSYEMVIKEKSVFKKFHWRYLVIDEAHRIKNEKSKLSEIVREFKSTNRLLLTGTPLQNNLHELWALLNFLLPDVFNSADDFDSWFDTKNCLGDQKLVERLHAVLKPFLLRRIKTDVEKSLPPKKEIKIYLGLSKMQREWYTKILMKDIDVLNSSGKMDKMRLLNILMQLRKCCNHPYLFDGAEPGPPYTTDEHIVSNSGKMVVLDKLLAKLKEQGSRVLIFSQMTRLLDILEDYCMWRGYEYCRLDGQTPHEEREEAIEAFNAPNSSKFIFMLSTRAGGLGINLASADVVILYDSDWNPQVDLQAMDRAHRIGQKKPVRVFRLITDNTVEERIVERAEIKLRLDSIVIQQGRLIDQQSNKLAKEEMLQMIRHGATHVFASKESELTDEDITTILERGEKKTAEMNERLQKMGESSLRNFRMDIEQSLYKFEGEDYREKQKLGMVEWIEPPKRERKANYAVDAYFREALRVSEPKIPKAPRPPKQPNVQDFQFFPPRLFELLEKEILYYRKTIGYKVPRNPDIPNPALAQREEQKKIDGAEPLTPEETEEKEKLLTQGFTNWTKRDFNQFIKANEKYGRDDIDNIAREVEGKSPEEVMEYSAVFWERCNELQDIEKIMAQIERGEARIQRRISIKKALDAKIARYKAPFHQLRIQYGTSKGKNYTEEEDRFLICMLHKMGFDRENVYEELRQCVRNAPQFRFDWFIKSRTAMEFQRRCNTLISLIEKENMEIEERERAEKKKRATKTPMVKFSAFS
UniProt P50750: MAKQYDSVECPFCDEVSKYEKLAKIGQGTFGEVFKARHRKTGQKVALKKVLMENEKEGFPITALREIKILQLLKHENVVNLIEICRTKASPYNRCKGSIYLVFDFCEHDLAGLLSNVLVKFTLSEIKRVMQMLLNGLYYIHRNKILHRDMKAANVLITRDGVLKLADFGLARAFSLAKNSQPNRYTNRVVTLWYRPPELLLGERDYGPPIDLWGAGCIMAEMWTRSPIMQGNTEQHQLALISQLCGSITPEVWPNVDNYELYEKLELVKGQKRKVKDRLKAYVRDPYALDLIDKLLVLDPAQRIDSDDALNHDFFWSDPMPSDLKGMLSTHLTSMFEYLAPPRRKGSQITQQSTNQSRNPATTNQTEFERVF
UniProt P25490: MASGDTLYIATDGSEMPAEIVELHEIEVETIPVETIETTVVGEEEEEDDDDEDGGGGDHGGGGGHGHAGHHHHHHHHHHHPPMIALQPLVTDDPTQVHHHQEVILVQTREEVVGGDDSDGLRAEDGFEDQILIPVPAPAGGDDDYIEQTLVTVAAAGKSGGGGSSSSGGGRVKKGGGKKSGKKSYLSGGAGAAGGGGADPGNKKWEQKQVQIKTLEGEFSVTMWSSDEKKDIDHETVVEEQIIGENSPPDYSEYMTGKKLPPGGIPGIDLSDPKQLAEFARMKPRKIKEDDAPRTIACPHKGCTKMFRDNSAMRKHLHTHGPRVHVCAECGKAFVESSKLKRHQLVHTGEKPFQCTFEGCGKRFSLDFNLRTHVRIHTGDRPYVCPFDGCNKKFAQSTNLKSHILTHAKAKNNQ
UniProt Q13547: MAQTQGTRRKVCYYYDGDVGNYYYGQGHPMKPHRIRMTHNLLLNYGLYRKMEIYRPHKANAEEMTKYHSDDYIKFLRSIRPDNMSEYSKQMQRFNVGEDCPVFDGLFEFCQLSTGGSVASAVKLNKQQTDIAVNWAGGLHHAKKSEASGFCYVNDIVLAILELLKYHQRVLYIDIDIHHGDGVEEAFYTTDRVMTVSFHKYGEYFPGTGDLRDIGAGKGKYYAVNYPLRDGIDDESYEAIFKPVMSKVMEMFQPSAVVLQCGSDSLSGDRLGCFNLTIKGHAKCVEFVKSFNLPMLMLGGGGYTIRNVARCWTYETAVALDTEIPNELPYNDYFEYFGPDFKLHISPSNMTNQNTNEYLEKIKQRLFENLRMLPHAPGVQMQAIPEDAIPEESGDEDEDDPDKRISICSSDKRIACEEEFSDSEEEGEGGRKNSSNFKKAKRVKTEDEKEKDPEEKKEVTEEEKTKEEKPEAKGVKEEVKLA
UniProt Q14839: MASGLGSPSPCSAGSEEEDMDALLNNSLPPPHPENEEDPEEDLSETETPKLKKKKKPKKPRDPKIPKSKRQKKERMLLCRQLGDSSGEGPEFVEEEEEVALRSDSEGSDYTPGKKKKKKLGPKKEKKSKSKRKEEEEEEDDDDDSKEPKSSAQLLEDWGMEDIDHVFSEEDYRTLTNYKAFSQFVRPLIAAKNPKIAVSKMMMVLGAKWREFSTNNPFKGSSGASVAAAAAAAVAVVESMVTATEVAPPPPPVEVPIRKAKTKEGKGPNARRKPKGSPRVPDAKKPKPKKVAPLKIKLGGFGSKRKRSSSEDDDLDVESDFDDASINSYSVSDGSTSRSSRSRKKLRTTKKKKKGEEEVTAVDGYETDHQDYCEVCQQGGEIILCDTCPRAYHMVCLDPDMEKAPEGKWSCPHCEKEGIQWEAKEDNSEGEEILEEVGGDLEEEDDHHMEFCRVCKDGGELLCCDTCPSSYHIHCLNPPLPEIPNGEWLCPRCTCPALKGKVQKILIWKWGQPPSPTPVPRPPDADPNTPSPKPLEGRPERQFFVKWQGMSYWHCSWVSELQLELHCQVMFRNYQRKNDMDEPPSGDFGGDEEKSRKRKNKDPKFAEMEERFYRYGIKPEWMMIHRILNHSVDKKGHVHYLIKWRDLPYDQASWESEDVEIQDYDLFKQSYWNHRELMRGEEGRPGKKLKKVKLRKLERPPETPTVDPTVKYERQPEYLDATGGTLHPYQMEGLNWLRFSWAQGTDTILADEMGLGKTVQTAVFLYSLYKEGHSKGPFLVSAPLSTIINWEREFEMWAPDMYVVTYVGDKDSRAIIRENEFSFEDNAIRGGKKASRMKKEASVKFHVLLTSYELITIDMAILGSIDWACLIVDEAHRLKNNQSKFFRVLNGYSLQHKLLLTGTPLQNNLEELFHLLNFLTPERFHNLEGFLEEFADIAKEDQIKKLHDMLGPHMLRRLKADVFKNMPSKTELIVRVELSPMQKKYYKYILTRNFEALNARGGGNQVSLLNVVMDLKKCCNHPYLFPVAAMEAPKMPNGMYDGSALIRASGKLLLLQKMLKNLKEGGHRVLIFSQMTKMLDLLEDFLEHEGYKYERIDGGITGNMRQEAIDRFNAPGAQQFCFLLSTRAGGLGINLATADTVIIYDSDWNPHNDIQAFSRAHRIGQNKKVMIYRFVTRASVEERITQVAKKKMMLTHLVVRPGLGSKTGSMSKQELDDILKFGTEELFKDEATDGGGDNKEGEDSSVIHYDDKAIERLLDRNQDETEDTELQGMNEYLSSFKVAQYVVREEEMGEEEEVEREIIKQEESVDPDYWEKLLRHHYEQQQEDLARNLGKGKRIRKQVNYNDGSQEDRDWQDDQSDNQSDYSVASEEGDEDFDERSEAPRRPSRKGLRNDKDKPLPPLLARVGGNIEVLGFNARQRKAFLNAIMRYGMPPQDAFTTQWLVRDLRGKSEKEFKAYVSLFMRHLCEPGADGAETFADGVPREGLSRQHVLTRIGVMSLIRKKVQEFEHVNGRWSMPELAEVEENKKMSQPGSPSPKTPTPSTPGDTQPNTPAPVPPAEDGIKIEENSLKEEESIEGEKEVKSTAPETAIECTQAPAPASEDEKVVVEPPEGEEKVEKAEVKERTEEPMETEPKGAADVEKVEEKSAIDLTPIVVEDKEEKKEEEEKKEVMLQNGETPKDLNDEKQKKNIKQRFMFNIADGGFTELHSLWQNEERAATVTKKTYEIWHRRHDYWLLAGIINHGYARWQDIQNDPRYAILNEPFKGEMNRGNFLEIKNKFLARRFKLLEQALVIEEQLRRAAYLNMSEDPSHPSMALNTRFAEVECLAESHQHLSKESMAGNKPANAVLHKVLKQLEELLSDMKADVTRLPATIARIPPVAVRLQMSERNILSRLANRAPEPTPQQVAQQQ

How the values were obtained:
Flag-HA-NPM [1] = molecular target: Flag-HA-NPM (UniProt P06748); assay: co-IP + SEC; Flag-NPM and Flag-NPM-MLF1 affinity purified complexes from K562 nuclear extracts fractionated on Superose 6 10/300GL; fractions analysed by Western blot
Flag-HA-NPM [2] = molecular target: Flag-HA-NPM (UniProt P06748); assay: co-IP; nuclear extracts of K562 MOCK, NPM or NPM-MLF1 cells; IP with Flag beads or specific antibodies (CHD4, SNF2H, BRG1, EZH2, CDK9, CTCF, YY1) or isotype-matched IgG overnight at 4°C; IP buffer 50 mM Tris pH 7.5, 145 mM KCl, 0.5% NP40; Western blot; also with 10 μg/mL DNaseI
[3] = molecular target: endogenous NPM (human (endogenous in K562 and HEL)) (UniProt P06748); assay: co-IP; HEL WT cell nuclear extracts; IP with NPM, BRG1, SNF2H antibodies or isotype-matched IgG; Western blot
Flag-HA-NPM [4] = molecular target: Flag-HA-NPM (UniProt P06748); assay: co-IP; nuclear extracts of K562 MOCK, NPM or NPM-MLF1 cells; IP with Flag beads or specific antibodies (CHD4, SNF2H, BRG1, EZH2, CDK9, CTCF, YY1) or isotype-matched IgG overnight at 4°C; IP buffer 50 mM Tris pH 7.5, 145 mM KCl, 0.5% NP40; Western blot; also with 10 μg/mL DNaseI; remark: listed apart in the source

Row | Molecule | binding (Flag-HA-NPM [1]) | binding (Flag-HA-NPM [2]) | binding [3] | binding (Flag-HA-NPM [4])
1 | CHD3 (from UniProt Q12873 1-2000) | binds | binds |  | 
2 | SMARCA1 (SNF2L) (from UniProt P28370 1-1042) |  | binds |  | 
3 | CDK9 (from UniProt P50750 1-372) (enzyme) |  | binds |  | 
4 | RBBP5 (from UniProt Q15291 1-538) |  | binds |  | 
5 | CTCF (protein, UniProt P49711 1-727) MEGDAVEAIVEESETFIKGKERKTYQRRREGGQEEDACHLPQNQTDGGEVVQDVNSSVQMVMMEQLDPTLLQMKTEVMEGTVAPEAEAAVDDTQIITLQVVNMEEQPINIGELQLVQVPVPVTVPVATTSVEELQGAYENEVSKEGLAESEPMICHTLPLPEGFQVVKVGANGEVETLEQGELPPQEDPSWQKDPDYQPPAKKTKKTKKSKLRYTEEGKDVDVSVYDFEEEQQEGLLSEVNAEKVVGNMKPPKPTKIKKKGVKKTFQCELCSYTCPRRSNLDRHMKSHTDERPHKCHLCGRAFRTVTLLRNHLNTHTGTRPHKCPDCDMAFVTSGELVRHRRYKHTHEKPFKCSMCDYASVEVSKLKRHIRSHTGERPFQCSLCSYASRDTYKLKRHMRTHSGEKPYECYICHARFTQSGTMKMHILQKHTENVAKFHCPHCDTVIARKSDLGVHLRKQHSYIEQGKKCRYCDAVFHERYALIQHQKSHKNEKRFKCDQCDYACRQERHMIMHKRTHTGEKPYACSHCDKTFRQKQLLDMHFKRYHDPNFVPAAFVCSKCGKTFTRRNTMARHADNCAGPDGVEGENGGETKKSKRGRKRKMRSKKEDSSDSENAEPDLDDNEDEEEPAVEIEPEPEPQPVTPAPPPAKKRRGRPPGRTNQPKQNQPTAIIQVEDQNTGAIENIIVEVKKEPDAEPAEGEEEEAQPAATDAPNGDLTPEMILSMMDR |  |  |  | binds

Next, values leading:

Row | binding (Flag-HA-NPM [1]) | binding (Flag-HA-NPM [2]) | binding [3] | binding (Flag-HA-NPM [4]) | Molecule
6 |  | binds |  |  | YY1 (from UniProt P25490 1-414)
7 | binds |  |  |  | HDAC1 (from UniProt Q13547 1-482)
8 |  | binds |  |  | SUZ12 (from UniProt Q15022 1-739)
9 |  | binds | binds |  | SMARCA5 (SNF2H) (from UniProt O60264 1-1052)
10 | binds | binds | binds |  | CHD4 (from UniProt Q14839 1-1912)
11 |  | binds | binds |  | SMARCA4 (BRG1) (from UniProt P51532 1-1647)
12 |  |  |  | binds | WSTF (BAZ1B) (protein, UniProt Q9UIG0 1-1483) MAPLLGRKPFPLVKPLPGEEPLFTIPHTQEAFRTREEYEARLERYSERIWTCKSTGSSQLTHKEAWEEEQEVAELLKEEFPAWYEKLVLEMVHHNTASLEKLVDTAWLEIMTKYAVGEECDFEVGKEKMLKVKIVKIHPLEKVDEEATEKKSDGACDSPSSDKENSSQIAQDHQKKETVVKEDEGRRESINDRARRSPRKLPTSLKKGERKWAPPKFLPHKYDVKLQNEDKIISNVPADSLIRTERPPNKEIVRYFIRHNALRAGTGENAPWVVEDELVKKYSLPSKFSDFLLDPYKYMTLNPSTKRKNTGSPDRKPSKKSKTDNSSLSSPLNPKLWCHVHLKKSLSGSPLKVKNSKNSKSPEEHLEEMMKMMSPNKLHTNFHIPKKGPPAKKPGKHSDKPLKAKGRSKGILNGQKSTGNSKSPKKGLKTPKTKMKQMTLLDMAKGTQKMTRAPRNSGGTPRTSSKPHKHLPPAALHLIAYYKENKDREDKRSALSCVISKTARLLSSEDRARLPEELRSLVQKRYELLEHKKRWASMSEEQRKEYLKKKREELKKKLKEKAKERREKEMLERLEKQKRYEDQELTGKNLPAFRLVDTPEGLPNTLFGDVAMVVEFLSCYSGLLLPDAQYPITAVSLMEALSADKGGFLYLNRVLVILLQTLLQDEIAEDYGELGMKLSEIPLTLHSVSELVRLCLRRSDVQEESEGSDTDDNKDSAAFEDNEVQDEFLEKLETSEFFELTSEEKLQILTALCHRILMTYSVQDHMETRQQMSAELWKERLAVLKEENDKKRAEKQKRKEMEAKNKENGKVENGLGKTDRKKEIVKFEPQVDTEAEDMISAVKSRRLLAIQAKKEREIQEREMKVKLERQAEEERIRKHKAAAEKAFQEGIAKAKLVMRRTPIGTDRNHNRYWLFSDEVPGLFIEKGWVHDSIDYRFNHHCKDHTVSGDEDYCPRSKKANLGKNASMNTQHGTATEVAVETTTPKQGQNLWFLCDSQKELDELLNCLHPQGIRESQLKERLEKRYQDIIHSIHLARKPNLGLKSCDGNQELLNFLRSDLIEVATRLQKGGLGYVEETSEFEARVISLEKLKDFGECVIALQASVIKKFLQGFMAPKQKRRKLQSEDSAKTEEVDEEKKMVEEAKVASALEKWKTAIREAQTFSRMHVLLGMLDACIKWDMSAENARCKVCRKKGEDDKLILCDECNKAFHLFCLRPALYEVPDGEWQCPACQPATARRNSRGRNYTEESASEDSEDDESDEEEEEEEEEEEEEDYEVAGLRLRPRKTIRGKHSVIPPAARSGRRPGKKPHSTRRSQPKAPPVDDAEVDELVLQTKRSSRRQSLELQKCEEILHKIVKYRFSWPFREPVTRDEAEDYYDVITHPMDFQTVQNKCSCGSYRSVQEFLTDMKQVFTNAEVYNCRGSHVLSCMVKTEQCLVALLHKHLPGHPYVRRKRKKFPDRLAEDEGDSEPEAVGQSRGRRQKK
